In assay [1] the target is T1, S. cerevisiae Ifh1-Myc (S. cerevisiae) (UniProt P39520).
T1 sequence: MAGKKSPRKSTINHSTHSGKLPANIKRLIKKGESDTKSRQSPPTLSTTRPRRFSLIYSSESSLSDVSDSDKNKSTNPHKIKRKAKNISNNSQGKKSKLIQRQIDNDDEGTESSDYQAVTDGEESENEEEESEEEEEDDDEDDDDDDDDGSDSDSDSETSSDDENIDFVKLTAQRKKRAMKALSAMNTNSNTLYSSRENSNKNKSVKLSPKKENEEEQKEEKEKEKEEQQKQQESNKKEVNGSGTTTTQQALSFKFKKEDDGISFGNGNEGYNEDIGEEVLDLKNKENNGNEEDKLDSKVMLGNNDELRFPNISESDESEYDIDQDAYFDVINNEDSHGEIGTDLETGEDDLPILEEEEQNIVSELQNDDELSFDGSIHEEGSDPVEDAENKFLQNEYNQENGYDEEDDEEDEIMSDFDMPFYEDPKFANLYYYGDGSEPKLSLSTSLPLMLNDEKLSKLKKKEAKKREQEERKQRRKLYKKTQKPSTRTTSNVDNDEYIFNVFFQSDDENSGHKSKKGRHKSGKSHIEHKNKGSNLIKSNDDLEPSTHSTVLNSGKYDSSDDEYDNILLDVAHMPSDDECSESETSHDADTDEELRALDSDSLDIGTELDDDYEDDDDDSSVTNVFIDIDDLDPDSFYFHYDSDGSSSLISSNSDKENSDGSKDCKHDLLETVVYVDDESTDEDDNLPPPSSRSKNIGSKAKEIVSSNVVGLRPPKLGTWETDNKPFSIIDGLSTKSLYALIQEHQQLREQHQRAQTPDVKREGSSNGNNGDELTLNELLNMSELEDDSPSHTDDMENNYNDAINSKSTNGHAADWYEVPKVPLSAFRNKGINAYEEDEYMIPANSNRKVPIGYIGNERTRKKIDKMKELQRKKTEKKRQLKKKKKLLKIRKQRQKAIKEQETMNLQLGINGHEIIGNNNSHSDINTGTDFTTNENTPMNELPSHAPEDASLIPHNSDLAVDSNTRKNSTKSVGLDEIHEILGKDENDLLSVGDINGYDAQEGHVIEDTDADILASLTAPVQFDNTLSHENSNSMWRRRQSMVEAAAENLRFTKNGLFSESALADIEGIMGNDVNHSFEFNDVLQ
The assay can be described thus: co-IP; lysates in IP150 buffer (50 mM Tris-HCl pH 7.4, 150 mM NaCl, 2 mM MgCl2, 0.1% NP40); 1 mg total protein on anti-Myc (9E10) or anti-HA (12CA5) beads, 4°C overnight; blot with anti-Myc or anti-HA; cells also treated with rapamycin, heat shock, osmotic shock or hypoxia.

The target of assay [2] is T2, C. albicans Ifh1-Myc (C. albicans) (UniProt Q5AG97).
T2 sequence: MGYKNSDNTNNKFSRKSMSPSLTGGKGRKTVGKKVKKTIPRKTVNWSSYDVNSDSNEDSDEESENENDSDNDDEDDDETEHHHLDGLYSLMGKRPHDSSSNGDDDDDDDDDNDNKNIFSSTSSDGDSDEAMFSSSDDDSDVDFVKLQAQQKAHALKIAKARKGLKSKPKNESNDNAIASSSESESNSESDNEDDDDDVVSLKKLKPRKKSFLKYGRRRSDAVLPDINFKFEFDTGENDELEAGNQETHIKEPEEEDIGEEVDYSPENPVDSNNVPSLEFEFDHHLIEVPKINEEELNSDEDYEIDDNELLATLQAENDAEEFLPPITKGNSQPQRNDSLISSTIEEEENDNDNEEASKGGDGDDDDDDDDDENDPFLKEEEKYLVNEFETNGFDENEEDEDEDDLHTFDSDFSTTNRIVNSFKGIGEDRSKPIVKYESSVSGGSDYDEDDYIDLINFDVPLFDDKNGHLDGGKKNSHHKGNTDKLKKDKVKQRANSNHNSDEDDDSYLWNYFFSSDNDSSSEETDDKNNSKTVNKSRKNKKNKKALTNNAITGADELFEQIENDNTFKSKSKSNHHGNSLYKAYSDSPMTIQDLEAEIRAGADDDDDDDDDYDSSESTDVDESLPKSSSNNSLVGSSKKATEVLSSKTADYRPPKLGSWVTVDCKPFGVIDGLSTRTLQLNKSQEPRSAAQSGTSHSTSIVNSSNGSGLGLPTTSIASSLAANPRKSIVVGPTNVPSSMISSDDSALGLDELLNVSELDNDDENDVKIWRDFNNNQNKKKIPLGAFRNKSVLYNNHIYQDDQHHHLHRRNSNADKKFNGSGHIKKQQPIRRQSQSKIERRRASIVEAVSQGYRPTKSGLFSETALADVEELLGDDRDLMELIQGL
Described as above.

These are yes or no findings as the source states them, for the method shown. Binding seen in cells or lysates may run through a third protein. Some binding calls cover weakened binding; strength is not graded here. Tags and fused reporters may be left off the sequences shown.

B1: S. cerevisiae Fhl1-HA (protein, UniProt P39521 1-936)
chain: MDGEMAIIESSNHVGTSSPTTETQFTIDSSALKDQETKESITNSPTSEVPIETKLPKSSDIVTEEKHPQNTTTDIENEVENPVTDDNGNLKLELPDNLDNADFSKLLEFDAKNDEALFNSNELLSHTMDPVNNIDLTHDHSREVSSKEDINIEPVNPDEDEREKTQDNTAAVKTEGIRNSEDTSIQKDEPTADAIYTDVHKLSVNKDTETLPTLVDEKNNMLHMRNNSITPIMFQQHELVGQPPQNTVTENNSTDAETTQRKLSEPIDASLPLPNEQPTIFAYARLDFQSFTFYVQTLHAIIGRRSENDFSHKVDVNLGPSKSISRRHAQIFYNFGTGRFELSIIGKNGAFVDDIFVEKGNTVPLRNKTKIQIGQIPFQFILPEQERNDDSKSPENADIAESEINTRNLKKNEPKSKKKITTGAKPKKAQTKPAVKKEKKPPKIPKKVYTLEEIPVEYRTKPTVSYSAMLTTCIRKYSTAKGMSLSEIYAGIRELFPYYKYCPDGWQSSVRHNLSLNKSFRKVSKEGKGWLWGLDEEYIAERERQKKKQSEIAVAKAQAAQLKLEQQQHKLQQVPQRGKKDIVSQRSNVNARKQNISQTLAANRAASNRKNTASDNQRTMKYLQEQLVILTRDRKGLSKQVIAAILTQALAMTINQVTQAAKNKGITGNPLTALMDKNPQHLNLILAAAVNAATAKVTKGEVKQLVNPETTAAAALAAKAQHSKPIRQPIVQTPHVPDRPPSQLSASASSHPNNYLHDKQPGSFDPSSLSRFFQPRQNARATSSVAATSVPAAASQNVDAQPKPKPAQDNDLESESGTSSSSSSSSESGSESDSGSDDGSASGSGDNSSTSSESESESDSGSEVDEKNNKNEKIDSESIKNNESKDDIPSKDENSSNDNREISKTDEEGHDSKRRKVSEDINEGITEVNVSLEEKL
Regarding B1, the binding result in assay [1] is listed as “binds”.

B2: C. albicans Fhl1-HA (protein, UniProt Q59ZC8 1-1152)
chain: MSHIDGDDHMTKDLIDSLESKDNDLSLVTSNTQIPDVEVANLTHDADEINQLFDTATNNVLPESNKKDKPIDTQDLHEDDPKAVPKTTSNGESTSNSNSVSPKLLPNDGKSTPKIQKELRRKSTFVPVTSNSKSLEPSEDDNNNNNNNSRISAYARLDFENFTFFVQTLQVVLGRKSNDETLQQNVDVHLSSKKAISRRHAKIFYNFGTQRFEISILGRNGAFVDNVFVEKGLTIPLTDGNKIQIGDIPFKFVLPSNEPNEENNNQDSSEKQFNPSDAINLRSNLYSKSSSPQSSPKRKPQPSKKVKKEPVSASNTSKDIKPTPPVPTTAISPTASISTSTNAATAATATTPATTTAARKNSINRRNSLLKIRRLSNARRKSLAANDEINELLKDLGVTSIDEINEEDSELLDAQIQSLLDEDNENLGGIEDSLMKLAEFNESAIDDDDDDEEGNENSQADLDRLEKTMEHDAIDDEIKAIDSNLTLLDDEISKLTPLINDTNQGLLEEKETKKKQLEEEKRKKQLQQLQHKNSLAKFPRRSAPLMGKPASIQPPASSSIYSRINGLDKIGKTVSPRPPPPKLIAPVLRVTAEPSAIRSRPPLRAITVSDSSYIATFSYPKTIEEPSKYPKPKVKKEHHKKHSKKVYSLDEIPEPYRSKPNISFQIMITNVLKTEAARNGLIINEITEAIKEVYPYYKYCTDGWQFSINHCIKFTKIYKRLQKRGSEWLYAMDELYINERENIRIKQREIAKAKAKAEALRQEEIRQRQRLEAQKSLPHNIVGRNFASPYANTRVPPNQYNQFSQSSSSSSSSATTTTNGQYGSTTMVGGTSPQAGSIRAQLAAVRGNGNTPATTSTTPSLPAMNDPKTKKSLEYLQKELFTLYKARKLTYDTQTATSLITKAVATTIAQVNSIGAKAGAGDNALVFLVERAPEKVSKILDIALTKSIKEHEGIASKSPSQPATPGMRPEQLTTTSQSAATPTTTPQISNLQSLPVKPPISTPLPQVPQQQVSGVNIPGPIATPNIGVTSGVGNLGTTSIGTPTPTQIQSPATSVIPAMQSPQKPVSTPIPTSVPVPLPVPSAPLARPPSFGKPPGAGSSLSRPKAFGKPPGAGSSLSRPPTFLSNKPSYKRELEDDEEEGEQATNKIAKTE
Turning to B2, the binding entry in assay [2] is on record as “binds”.
